Source: PubChem BioAssay AID1159578 (Peter MacCallum Cancer Centre, 2015)

Screen: 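Genome-wide hunt for genes controlling movement of lymphatic endothelial cells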 (primary screen)
System: human lymphatic endothelial cells
Reagent: siRNA pool against human genes, 40 nM
Time to read-out: 48 h after transfection
Detection: 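Cells stained with dye and imaged after a scratch; covered wound area and nuclei counted, duplicates averaged, migration set against mock wells and turned into a robust z-score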
Direction: migration robust z-score: higher = faster migration into the scratch; migration relative to mock: higher = more scratch area covered than mock; nuclei per well: higher = more cells in the well
Call rule: 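Pools averaging fewer than 3300 nuclei are never called; remaining pools count as changed when migration robust z lies outside -2 to 2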
Meaning of the calls: active = migration changed; inactive = no migration change, or too few cells
Shown is a random part of about 18,000 deposited reagents. Of all reagents, about 1,030 (5.7%) were called active. 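Inactive calls also include pools with fewer than 3300 nuclei, whose migration was not assessed.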 Raw values are not corrected between plates. A number with no mark means an inactive call.

gene | migration robust z-score | migration class with cell-count check | migration relative to mock | nuclei per well, duplicate mean
MBOAT1 | 0.38 | migration z between -2 and 2; enough cells | 0.98 | 5764
ONECUT1 | 1.53 | migration z between -2 and 2; enough cells | 1.1 | 7188
GNA14 | 0.16 | migration z between -2 and 2; enough cells | 0.84 | 6063
RPSA | -0.69 | migration z between -2 and 2; enough cells | 0.7 | 4896
PTPA | 1.12 | migration z between -2 and 2; enough cells | 1.02 | 6077
ARHGEF19 | -0.97 | migration z between -2 and 2; enough cells | 0.64 | 6614
ADIRF | -1.12 | migration z between -2 and 2; enough cells | 0.6 | 4314
ATR | 0.1 | migration z between -2 and 2; enough cells | 0.82 | 4346
TXNL4B | 0.54 | migration z between -2 and 2; enough cells | 0.91 | 6266
LHB | -0.45 | migration z between -2 and 2; enough cells | 0.77 | 6274
LCE2D | 0.23 | migration z between -2 and 2; enough cells | 0.95 | 6450
CCR10 | -0.13 | migration z between -2 and 2; enough cells | 0.78 | 5025
CASP4 | -1.25 | migration z between -2 and 2; enough cells | 0.56 | 5870
INHBB | -0.42 | migration z between -2 and 2; enough cells | 0.73 | 5612
NUCKS1 | 0.34 | migration z between -2 and 2; enough cells | 0.87 | 4806
DDC | 0.78 | migration z between -2 and 2; enough cells | 0.96 | 5768
OR4D1 | -0.86 | migration z between -2 and 2; enough cells | 0.66 | 4203
DHRS1 | -1.4 | under 3300 nuclei; migration not judged | 0.54 | 2867
SRXN1 | 0.08 | migration z between -2 and 2; enough cells | 0.82 | 5858
ENPP2 | 0.31 | migration z between -2 and 2; enough cells | 0.86 | 5517
KRT34 | 0.33 | migration z between -2 and 2; enough cells | 0.97 | 6404
TDRD12 | -1.79 | migration z between -2 and 2; enough cells | 0.42 | 6156
TRIM60 | 0.65 | migration z between -2 and 2; enough cells | 0.93 | 6217
MARCO | -0.98 | migration z between -2 and 2; enough cells | 0.64 | 7382
B3GALT6 | -1.29 | migration z between -2 and 2; enough cells | 0.55 | 5823

Entries above whose target name begins with A or a:
gene | migration robust z-score | migration class with cell-count check | migration relative to mock | nuclei per well, duplicate mean
ARHGEF19 | -0.97 | migration z between -2 and 2; enough cells | 0.64 | 6614
ADIRF | -1.12 | migration z between -2 and 2; enough cells | 0.6 | 4314
ATR | 0.1 | migration z between -2 and 2; enough cells | 0.82 | 4346

The listing continues.
gene | migration robust z-score | migration class with cell-count check | migration relative to mock | nuclei per well, duplicate mean
SMAD6 | -0.57 | migration z between -2 and 2; enough cells | 0.7 | 7578
MAP3K14 | -0.76 | migration z between -2 and 2; enough cells | 0.66 | 4815
PRP4K | -0.46 | migration z between -2 and 2; enough cells | 0.72 | 5524
BTBD6 | 0.22 | migration z between -2 and 2; enough cells | 0.94 | 5784
C10orf95 | -0.01 | migration z between -2 and 2; enough cells | 0.88 | 4260
POP1 | 1.84 | migration z between -2 and 2; enough cells | 1.36 | 6293
AMTN | 2.35 (active) | migration z above 2; enough cells | 1.5 | 6908
PRB1 | 1.5 | migration z between -2 and 2; enough cells | 1.27 | 5617
NT5M | -0.94 | migration z between -2 and 2; enough cells | 0.62 | 5182
NUB1 | 1.48 | migration z between -2 and 2; enough cells | 1.27 | 6778
SLC46A3 | -1.23 | migration z between -2 and 2; enough cells | 0.57 | 5444
TRPV1 | -1.46 | migration z between -2 and 2; enough cells | 0.52 | 5942
RAD54B | 0.21 | migration z between -2 and 2; enough cells | 0.84 | 6138
GTF2F2 | 0.52 | migration z between -2 and 2; enough cells | 0.9 | 5225
PRSS50 | -0.68 | migration z between -2 and 2; enough cells | 0.68 | 5216
LTB4R2 | -0.18 | migration z between -2 and 2; enough cells | 0.77 | 6072
HSD11B1L | -0.24 | migration z between -2 and 2; enough cells | 0.82 | 4899
NMRK2 | 1.72 | migration z between -2 and 2; enough cells | 1.33 | 5837
KRT33A | -0.04 | migration z between -2 and 2; enough cells | 0.88 | 3955
SHD | -1.25 | migration z between -2 and 2; enough cells | 0.56 | 3752
RBM12 | 0.74 | migration z between -2 and 2; enough cells | 1.08 | 5928
LAMTOR5 | 0.26 | migration z between -2 and 2; enough cells | 0.95 | 5377
CASP8AP2 | -0.39 | migration z between -2 and 2; enough cells | 0.73 | 4890
ZDHHC7 | 1.07 | migration z between -2 and 2; enough cells | 1.17 | 7548
GPANK1 | -1.64 | migration z between -2 and 2; enough cells | 0.46 | 5832
BOP1 | 0.16 | migration z between -2 and 2; enough cells | 0.92 | 5830
RIOK2 | 1.17 | migration z between -2 and 2; enough cells | 1.03 | 6990
GPR173 | -1.9 | migration z between -2 and 2; enough cells | 0.44 | 6862
DCAF17 | 0.22 | migration z between -2 and 2; enough cells | 0.94 | 6276
HLA-DRA | -0.26 | migration z between -2 and 2; enough cells | 0.76 | 6531
CCDC159 | -0.6 | migration z between -2 and 2; enough cells | 0.73 | 5618
CIMIP2A | -1.36 | migration z between -2 and 2; enough cells | 0.53 | 4548
PARP12 | 0.94 | migration z between -2 and 2; enough cells | 1.13 | 5796
ZNF222 | 0.4 | migration z between -2 and 2; enough cells | 0.99 | 6418
SCAMP3 | 0.3 | migration z between -2 and 2; enough cells | 0.96 | 4898
UQCRB | 0.93 | migration z between -2 and 2; enough cells | 0.98 | 5452
GABRA2 | -0.32 | migration z between -2 and 2; enough cells | 0.74 | 5815
HROB | -4.56 | under 3300 nuclei; migration not judged | -0.27 | 2084
ZBTB9 | 0.24 | migration z between -2 and 2; enough cells | 0.94 | 6050
UBR1 | -1.58 | migration z between -2 and 2; enough cells | 0.5 | 4684
CXXC1 | -1.66 | migration z between -2 and 2; enough cells | 0.48 | 4834
DPT | -1.36 | migration z between -2 and 2; enough cells | 0.53 | 6701
KCNS1 | -1.22 | migration z between -2 and 2; enough cells | 0.57 | 5232
LAMP3 | 0.98 | migration z between -2 and 2; enough cells | 1.14 | 5182
CCL20 | 0.05 | migration z between -2 and 2; enough cells | 0.82 | 5983
DUSP26 | -1.38 | migration z between -2 and 2; enough cells | 0.52 | 3998
MMP3 | 0.62 | migration z between -2 and 2; enough cells | 0.92 | 5096
SLCO3A1 | -0.5 | migration z between -2 and 2; enough cells | 0.71 | 4588
